In patent publication US20040022789A1, “Methods and compositions for treating T cell mediated inflammatory/autoimmune diseases and disorders in subjects having a glucocorticoid regulation deficiency” (The Washington University, priority 2002, published 2004):
For at least one compound, name, drawing or mass did not settle the structure.

Tested on: TGRko mice
Test: Mortality of TGRko mice after polyclonal T cell activation with anti-CD3ε antibody
Type: in vivo
Conditions: 100 μg anti-CD3ε antibody i.p., treatment before (and after) challenge
Protocol: Animal husbandry and plasma sampling: Mice were housed on a 12 h/12 h light/dark cycle with ad libitum access to rodent chow. Blood for measurement of corticosterone and cytokines was obtained by rapid retroorbital phlebotomy into heparinized capillary tubes with a total time from first handling the animal to completion of bleeding not exceeding 30 s. Plasma was separated by centrifugation and stored at −80° C. until assay. Unless otherwise noted, all mice used were 6-10 weeks old and of a C57BL/6×129/Sv genetic background.
Generation of TGRko mice: To build a TGRko targeting vector (pGRloxPneo), a loxP site was inserted into the unique Sac I site in the GR gene region upstream of exon 2 between exons 1B and 1C. A PGKneo (gene encoding for resistance to neomycin) cassette was then subcloned containing flanking loxP sites into intron 2 of the GR gene using oligonucleotide linkers. To obtain ES clones having replaced one copy of the endogenous murine GR locus with the GRloxPneo allele, TC1 ES cells were electroporated in the presence of linearized pGRloxPneo as has previously been described (See, e.g., Muglia, L. J. et al., J. Clin. Invest., 93:2066-2072 (1994)). DNA from 87 G418 resistant embryonic stem cell (ES) clones was analyzed by Southern blot, employing a probe external to the flanking regions within our targeting vector. […]

Row | Structure (SMILES) | mortality / lethality after anti-CD3ε antibody administration
1 | CS(=O)(=O)Nc1ccc([N+](=O)[O-])cc1OC1CCCCC1 [NS-398, N-(2-cyclohexyloxynitrophenyl) methane sulfonamide] | Protection from lethality
2 | C[C@@H]1C[C@H]2[C@@H]3CCC4=CC(=O)C=C[C@]4(C)[C@@]3(F)[C@@H](O)C[C@]2(C)[C@@]1(O)C(=O)CO [dexamethasone] | could not be rescued
